Test system: mammary gland 4T1 cancer cell line
Experiment: Crystal violet cytotoxicity assay, E-DAPL/Dox combination
Assay type: cell-based
Details: 4T1 cells
Method: The potentiation of cytotoxic effect of E-DAPL/Dox combination was evaluated. The dose-effect relationship of individual drugs and E-DAPL/Dox mixture (ratio 202:1 was tested) was determined on mammary gland 4T1 cancer cell line by means of crystal violet assay (three measurements). The linearized Median-Effect Plot of dose response line provided both parameters (IC50; trend line m value) of Median-Effect Equation for individual and combination treatment [ref: Theoretical basis, experimental design, and computerized simulation of synergism and antagonism in drug combination studies; Ting-Chao Chou: Pharmacol Rev. 58(3), 2006, 621-81; Erratum in Pharmacol Rev. 2007; 59(1), 124]:
Potentiation of combination effect of E-DAPL/Dox/202:1 was expressed for the concentrations IC1 to IC60 by calculation of Combination index (CI) applying Combination Index Theorem for mutually nonexclusive drugs that obey higher order conditions [ref: Quantitative analysis of dose-effect relationships: the combined effects of multiple drugs or enzyme inhibitors; Ting-Chao Chou, Paul Talalay: Advances in Enzyme Regulation, Volume 22, 1984, Pages 27-55]: […]

`COc1cccc2c1C(=O)c1c(O)c3c(c(O)c1C2=O)C[C@@](O)(C(=O)CO)C[C@@H]3O[C@H]1C[C@H](N)[C@H](O)[C@H](C)O1` [Dox, doxorubicin] was tested, and the “m value trend line” value (Median-Effect Plot) was 0.7877 and the Dose-effect curve (shape of curve) was “flat sigmoidal”.

— patent US11414443B2, “Phospholipid derivatives and their use as medicaments” (USTAV MOLEKULARNI GENETIKY AV CR, V.V.I., priority 2017, dated 2022)
